# According to publication PMC7704523:
# Amino acid sequences for entries named in this document (tags omitted). Residues count along the entry.
# UniProt P11881: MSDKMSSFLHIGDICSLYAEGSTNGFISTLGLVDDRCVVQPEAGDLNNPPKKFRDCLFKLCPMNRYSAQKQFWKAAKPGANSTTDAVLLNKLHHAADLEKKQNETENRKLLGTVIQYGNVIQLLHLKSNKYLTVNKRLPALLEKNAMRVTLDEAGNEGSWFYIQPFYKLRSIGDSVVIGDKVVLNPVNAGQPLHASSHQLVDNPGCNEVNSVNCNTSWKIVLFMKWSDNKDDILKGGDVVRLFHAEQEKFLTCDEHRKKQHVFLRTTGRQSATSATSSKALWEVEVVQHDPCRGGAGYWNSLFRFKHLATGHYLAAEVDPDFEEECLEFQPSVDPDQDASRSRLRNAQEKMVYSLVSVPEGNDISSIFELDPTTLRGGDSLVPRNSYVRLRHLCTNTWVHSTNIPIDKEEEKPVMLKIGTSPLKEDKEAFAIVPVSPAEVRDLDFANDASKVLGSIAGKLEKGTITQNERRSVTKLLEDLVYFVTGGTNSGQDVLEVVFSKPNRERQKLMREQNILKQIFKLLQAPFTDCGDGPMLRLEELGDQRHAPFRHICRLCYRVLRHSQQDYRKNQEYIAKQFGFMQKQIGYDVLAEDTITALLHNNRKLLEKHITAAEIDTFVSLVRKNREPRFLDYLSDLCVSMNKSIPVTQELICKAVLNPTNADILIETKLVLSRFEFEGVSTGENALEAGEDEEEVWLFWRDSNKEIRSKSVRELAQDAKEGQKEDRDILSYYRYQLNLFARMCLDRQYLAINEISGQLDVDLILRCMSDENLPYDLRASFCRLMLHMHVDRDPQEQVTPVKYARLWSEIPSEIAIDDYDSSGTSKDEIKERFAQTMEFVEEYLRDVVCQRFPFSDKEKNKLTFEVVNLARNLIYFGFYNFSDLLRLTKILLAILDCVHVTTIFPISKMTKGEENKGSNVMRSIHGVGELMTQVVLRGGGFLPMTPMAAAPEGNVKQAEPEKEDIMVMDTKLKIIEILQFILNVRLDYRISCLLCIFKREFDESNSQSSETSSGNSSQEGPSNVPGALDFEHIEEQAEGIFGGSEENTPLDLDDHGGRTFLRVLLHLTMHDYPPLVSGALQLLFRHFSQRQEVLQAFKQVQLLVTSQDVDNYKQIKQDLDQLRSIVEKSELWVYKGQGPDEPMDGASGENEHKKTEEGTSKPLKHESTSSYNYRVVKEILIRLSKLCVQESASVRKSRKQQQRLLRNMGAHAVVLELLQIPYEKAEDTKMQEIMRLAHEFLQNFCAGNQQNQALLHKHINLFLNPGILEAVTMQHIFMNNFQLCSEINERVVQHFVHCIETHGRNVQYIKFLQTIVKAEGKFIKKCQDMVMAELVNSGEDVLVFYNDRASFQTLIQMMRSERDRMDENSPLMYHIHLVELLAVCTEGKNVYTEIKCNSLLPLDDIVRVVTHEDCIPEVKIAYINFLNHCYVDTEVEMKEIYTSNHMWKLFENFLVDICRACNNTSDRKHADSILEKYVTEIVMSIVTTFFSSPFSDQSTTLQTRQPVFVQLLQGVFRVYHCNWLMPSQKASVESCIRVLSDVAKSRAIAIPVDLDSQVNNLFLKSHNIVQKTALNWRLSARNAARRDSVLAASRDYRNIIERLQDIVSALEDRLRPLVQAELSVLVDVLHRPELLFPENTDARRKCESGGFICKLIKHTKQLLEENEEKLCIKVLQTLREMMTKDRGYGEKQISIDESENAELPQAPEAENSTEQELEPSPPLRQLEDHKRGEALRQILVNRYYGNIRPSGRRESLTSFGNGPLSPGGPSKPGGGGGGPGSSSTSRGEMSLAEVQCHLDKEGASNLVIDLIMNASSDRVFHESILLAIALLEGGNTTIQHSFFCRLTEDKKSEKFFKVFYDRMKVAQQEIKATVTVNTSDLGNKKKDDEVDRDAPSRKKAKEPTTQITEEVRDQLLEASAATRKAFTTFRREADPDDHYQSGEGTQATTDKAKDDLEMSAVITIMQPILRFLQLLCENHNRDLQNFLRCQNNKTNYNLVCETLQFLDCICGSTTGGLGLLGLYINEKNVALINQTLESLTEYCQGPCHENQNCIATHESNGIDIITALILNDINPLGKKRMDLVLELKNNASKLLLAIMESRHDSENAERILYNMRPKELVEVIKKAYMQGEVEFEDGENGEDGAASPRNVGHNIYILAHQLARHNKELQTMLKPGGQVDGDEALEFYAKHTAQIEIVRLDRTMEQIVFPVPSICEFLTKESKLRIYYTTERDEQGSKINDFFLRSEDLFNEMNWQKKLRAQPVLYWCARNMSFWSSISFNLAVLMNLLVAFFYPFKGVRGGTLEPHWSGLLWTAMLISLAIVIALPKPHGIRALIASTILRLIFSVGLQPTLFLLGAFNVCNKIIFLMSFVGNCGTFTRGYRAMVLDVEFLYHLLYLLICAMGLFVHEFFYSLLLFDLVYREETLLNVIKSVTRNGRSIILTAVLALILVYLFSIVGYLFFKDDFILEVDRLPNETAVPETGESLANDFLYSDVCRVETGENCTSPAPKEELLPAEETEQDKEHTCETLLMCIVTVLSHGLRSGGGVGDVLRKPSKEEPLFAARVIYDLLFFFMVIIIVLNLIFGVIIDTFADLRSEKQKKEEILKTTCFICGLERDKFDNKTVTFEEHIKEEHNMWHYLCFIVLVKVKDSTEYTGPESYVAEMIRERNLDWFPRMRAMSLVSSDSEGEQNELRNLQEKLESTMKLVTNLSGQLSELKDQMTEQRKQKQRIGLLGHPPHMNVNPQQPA
# UniProt P38647, residues 47-679: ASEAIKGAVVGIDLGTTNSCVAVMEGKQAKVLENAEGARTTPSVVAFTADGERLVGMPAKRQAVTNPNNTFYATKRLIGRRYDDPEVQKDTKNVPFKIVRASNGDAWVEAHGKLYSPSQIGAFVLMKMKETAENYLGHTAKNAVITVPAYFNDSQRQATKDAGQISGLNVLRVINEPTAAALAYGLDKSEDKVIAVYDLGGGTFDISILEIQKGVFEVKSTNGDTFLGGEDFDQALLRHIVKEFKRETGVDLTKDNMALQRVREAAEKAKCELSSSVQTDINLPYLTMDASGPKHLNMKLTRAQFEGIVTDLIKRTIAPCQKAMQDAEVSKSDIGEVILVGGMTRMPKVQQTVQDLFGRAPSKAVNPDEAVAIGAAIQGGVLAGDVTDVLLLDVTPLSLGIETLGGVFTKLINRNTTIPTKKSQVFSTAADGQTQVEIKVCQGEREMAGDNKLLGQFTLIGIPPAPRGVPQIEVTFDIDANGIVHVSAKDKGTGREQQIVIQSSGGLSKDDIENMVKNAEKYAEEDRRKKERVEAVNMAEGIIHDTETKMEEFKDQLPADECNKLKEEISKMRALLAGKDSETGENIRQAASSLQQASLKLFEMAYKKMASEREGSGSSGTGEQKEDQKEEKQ
# No constants are given. Whether binding was seen depends on the method and setting. In cells and extracts the contact can be indirect. Some binding calls cover weakened binding; strength is not graded here.
# Target: IP3R1 (mouse (endogenous in cardiomyocytes/heart of C57BL/6JOlaHsd mice)) (UniProt P11881)
# Test: co-IP; 500 ug of cardiomyocyte or heart lysate with 2 ug IP3R1 antibody (sc28614) overnight at 4 C in 50 mM Tris, 150 mM NaCl, 1% Triton X-100, 1 mM EDTA; protein G magnetic beads; blots for IP3R1, VDAC, Grp75; SD, HFHSD (16 weeks) and HFHSD/SD (8 weeks of diet reversal) mice
substance,measurement,value
Grp75 (from UniProt P38647 47-679),binding,binds
